We go through 1 substance from PMC5706891.

By UniProt entry, the sequences of proteins in these tests, tags left out.
UniProt P09874: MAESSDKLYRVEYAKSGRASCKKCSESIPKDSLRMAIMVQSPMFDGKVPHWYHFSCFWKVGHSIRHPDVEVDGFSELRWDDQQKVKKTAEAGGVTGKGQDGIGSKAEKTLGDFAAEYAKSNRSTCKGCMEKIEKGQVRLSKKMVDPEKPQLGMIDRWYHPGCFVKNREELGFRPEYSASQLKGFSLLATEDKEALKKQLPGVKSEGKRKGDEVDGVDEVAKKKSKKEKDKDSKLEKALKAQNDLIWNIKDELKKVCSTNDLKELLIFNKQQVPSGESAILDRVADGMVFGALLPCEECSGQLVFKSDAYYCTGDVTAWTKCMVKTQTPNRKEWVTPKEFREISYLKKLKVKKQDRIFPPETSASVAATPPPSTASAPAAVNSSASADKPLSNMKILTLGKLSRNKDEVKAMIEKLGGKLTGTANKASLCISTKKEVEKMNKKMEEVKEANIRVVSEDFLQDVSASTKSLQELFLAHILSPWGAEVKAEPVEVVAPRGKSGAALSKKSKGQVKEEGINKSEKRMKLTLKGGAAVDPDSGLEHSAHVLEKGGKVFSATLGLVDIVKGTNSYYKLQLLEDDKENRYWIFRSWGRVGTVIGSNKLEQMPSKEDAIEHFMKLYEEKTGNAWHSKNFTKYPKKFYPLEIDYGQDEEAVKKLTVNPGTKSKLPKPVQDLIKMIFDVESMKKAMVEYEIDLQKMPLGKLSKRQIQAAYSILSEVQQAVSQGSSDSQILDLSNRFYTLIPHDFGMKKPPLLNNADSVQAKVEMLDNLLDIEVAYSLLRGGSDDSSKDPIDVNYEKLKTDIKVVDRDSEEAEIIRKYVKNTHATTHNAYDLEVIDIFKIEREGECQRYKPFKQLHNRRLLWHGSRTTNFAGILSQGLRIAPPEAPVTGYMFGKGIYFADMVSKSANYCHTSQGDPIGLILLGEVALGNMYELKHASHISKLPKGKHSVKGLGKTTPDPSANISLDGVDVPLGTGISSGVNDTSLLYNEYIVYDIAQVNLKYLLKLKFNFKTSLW

Results are given in words; binding and its absence hold for the method and conditions named. Binding seen in cells or lysates may run through a third protein. Here binding means that the protein was enriched with, or labelled near, the bait; the list need not be complete. Sequences can lack the tags named with a protein.

This test concerns the target T1, Flag-RNF144A (ring finger protein 144A) (human) (UniProt P50876).
T1 sequence: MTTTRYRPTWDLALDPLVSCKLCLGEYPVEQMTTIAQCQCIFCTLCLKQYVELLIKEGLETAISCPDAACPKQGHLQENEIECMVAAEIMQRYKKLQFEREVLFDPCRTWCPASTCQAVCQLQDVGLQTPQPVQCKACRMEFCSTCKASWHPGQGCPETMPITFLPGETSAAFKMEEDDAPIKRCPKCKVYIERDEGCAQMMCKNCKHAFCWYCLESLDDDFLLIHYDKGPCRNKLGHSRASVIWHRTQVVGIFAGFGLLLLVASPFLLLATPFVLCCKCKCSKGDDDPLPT
The test is described as follows: affinity purification with mass spectrometry; lysates of HEK293T cells stably expressing Flag-RNF144A or empty vector pCDH, IP with anti-Flag antibody conjugated agarose beads, SDS-PAGE, LC-MS/MS.

Regarding “Poly(ADP-ribose) polymerase 1 (PARP1), endogenous (from UniProt P09874 1-1014)”, the binding entry is reported as “binds”.
